Data as given in patent US20250042943A1, “FAP DETECTION” (THE UNIVERSITY COURT OF THE UNIVERSITY OF EDINBURGH, priority 2021, published 2025).
“Also recorded” adds a separate entry of the source. Not every detail of the peptide structures is certain; ends, links or a residue may be inferred. Where a SMILES comes first, the peptide text is derived from it. [ ]: non-standard residue; d: D form. The star is where a group is joined. 5FAM = O=C1OC2(c3ccc(O)cc3Oc3cc(O)ccc32)c2ccc(C(=O)*)cc21; X1 = CN(C)c1ccc(N=Nc2ccccc2C(=O)*)cc1; AEEA = NCCOCCOCC(=O)O

The chains behind the UniProt entries cited, without tags or fusion partners.
UniProt P27487, whole entry: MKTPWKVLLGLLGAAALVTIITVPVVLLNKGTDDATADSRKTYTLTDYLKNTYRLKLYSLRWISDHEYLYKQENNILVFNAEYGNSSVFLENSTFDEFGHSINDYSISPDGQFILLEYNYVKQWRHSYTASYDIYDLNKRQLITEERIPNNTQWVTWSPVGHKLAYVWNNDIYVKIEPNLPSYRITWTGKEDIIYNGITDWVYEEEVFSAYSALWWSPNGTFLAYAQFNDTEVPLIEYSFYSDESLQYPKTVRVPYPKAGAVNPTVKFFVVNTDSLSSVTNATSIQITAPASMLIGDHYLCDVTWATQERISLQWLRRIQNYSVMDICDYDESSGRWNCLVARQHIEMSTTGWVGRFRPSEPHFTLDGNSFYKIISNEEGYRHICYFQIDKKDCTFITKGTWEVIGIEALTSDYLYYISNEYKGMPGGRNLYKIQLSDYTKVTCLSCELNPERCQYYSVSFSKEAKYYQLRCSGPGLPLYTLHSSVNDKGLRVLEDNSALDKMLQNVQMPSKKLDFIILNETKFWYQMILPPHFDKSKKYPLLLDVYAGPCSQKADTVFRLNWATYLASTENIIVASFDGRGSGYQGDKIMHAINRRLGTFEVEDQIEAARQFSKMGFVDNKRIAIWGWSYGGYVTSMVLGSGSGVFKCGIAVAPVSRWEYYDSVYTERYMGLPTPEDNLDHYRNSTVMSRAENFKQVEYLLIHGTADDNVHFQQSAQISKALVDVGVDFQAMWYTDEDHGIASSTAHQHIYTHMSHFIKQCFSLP

Experiments:
rhPREP = target: T1, rhPREP (Homo sapiens, UniProt P48147); assay: Probe cleavage by recombinant human PREP; assay type: biochemical; settings: probe 5 μM, enzyme 0.1 μg/ml, read 480/530 nm
T1 sequence (P48147 1-710): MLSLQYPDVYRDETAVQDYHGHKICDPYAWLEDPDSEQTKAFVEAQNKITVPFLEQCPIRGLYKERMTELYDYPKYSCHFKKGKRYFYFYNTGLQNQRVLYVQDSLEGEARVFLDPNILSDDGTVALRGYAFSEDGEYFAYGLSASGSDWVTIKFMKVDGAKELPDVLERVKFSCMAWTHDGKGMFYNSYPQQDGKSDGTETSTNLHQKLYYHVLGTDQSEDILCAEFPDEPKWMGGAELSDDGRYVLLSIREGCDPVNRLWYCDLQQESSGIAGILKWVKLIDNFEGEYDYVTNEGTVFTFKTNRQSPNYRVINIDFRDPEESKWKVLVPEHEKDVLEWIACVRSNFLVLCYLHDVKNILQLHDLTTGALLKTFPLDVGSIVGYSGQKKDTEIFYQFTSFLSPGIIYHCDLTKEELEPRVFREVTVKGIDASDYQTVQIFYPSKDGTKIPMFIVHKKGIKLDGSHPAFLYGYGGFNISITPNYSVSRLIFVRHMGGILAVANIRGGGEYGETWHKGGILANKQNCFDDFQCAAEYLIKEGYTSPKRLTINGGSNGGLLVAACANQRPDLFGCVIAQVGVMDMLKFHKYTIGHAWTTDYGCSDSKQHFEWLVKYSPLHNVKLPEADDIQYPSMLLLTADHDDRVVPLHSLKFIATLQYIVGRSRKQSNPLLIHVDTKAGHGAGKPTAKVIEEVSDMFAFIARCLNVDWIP

rhDPPIV = rhDPPIV (Homo sapiens, UniProt P27487); assay: Probe cleavage by recombinant human DPPIV (exopeptidase activity); assay type: biochemical; settings: probe 5 μM, enzyme 0.1 μg/ml, read 480/530 nm
rhFAP [1] = target: T2, rhFAP (Homo sapiens, UniProt Q12884); assay: Probe cleavage by recombinant human FAP (fluorescence read); assay type: biochemical
T2 sequence (Q12884 1-760): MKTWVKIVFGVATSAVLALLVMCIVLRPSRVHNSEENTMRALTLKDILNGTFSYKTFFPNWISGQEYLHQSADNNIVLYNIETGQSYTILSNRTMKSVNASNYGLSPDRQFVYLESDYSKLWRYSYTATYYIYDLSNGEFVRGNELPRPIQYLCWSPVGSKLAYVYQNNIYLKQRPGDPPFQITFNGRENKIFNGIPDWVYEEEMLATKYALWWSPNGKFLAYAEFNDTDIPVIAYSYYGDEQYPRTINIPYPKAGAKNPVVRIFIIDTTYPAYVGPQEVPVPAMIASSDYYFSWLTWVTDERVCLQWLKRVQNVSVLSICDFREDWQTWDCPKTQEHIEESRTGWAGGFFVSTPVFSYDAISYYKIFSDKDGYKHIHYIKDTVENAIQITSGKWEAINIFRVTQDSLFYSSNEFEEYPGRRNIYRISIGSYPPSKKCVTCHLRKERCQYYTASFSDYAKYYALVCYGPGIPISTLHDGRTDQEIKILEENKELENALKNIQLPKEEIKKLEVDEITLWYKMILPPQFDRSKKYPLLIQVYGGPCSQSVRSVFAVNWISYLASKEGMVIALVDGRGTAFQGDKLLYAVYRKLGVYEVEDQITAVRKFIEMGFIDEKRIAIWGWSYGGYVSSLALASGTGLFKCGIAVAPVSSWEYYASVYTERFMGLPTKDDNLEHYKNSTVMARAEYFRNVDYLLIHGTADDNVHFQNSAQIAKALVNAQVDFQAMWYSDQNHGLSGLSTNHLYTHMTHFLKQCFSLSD

[2] = system: panel of MMP's including 2, 9, 13; assay: Assessment against a panel of recombinant MMPs; assay type: biochemical, human; settings: recombinant enzymes (MMPs)
[3] = system: activated neutrophil lysate; assay: Assessment on activated neutrophil lysate
rhFAP [4] = target: T2, rhFAP; assay: Fluorescence intensity and lifetime imaging of rhFAP solutions; assay type: biochemical; settings: varying concentrations of rhFAP
[5] = system: NSCLC patient tissue samples; assay: Fluorescence intensity and lifetime imaging (FLIM, KronoScan) of ex vivo NSCLC tissue; assay type: cell-based, human
Experimental: For imaging solutions, varying concentrations of rhFAP were prepared in blackened eppendorfs and FAP3 to a final concentration of 5 μm added and imaged as below. For biological specimens, NSCLC patient tissue samples from surgical resection were used fresh or snap frozen and stored at −80 until required. Small fragments (approx. 4 mm^3) incubated at 37° C. in a 96 well plate in phenyl-red free DMEM (Gibco) containing 10% FCS, 1% Penicillin-streptomycin and 1% L-Glutamine. For the inhibitor fragments VBP (1:1000) was added. Samples were then imaged using a clinically tractable novel fluorescence lifetime imaging system, KronoScan, with an imaging fibre providing a 400×400 um field of view. KronoScan incorporates a supercontinuum laser source, in this case tuned for excitation at 488 nm, with a confocal laser scanning system and a time-resolved spectrometer. This spectrometer contains a 512 channel single photon avalanche diode (SPAD) sensor, allowing for the rapid collection of time resolved spectral fluorescence lifetime data. Fluorescence intensity and lifetime images were collected at 160×160 pixels over a 498-570 nm spectral range with an exposure time of 13 μs per pixel. This led to an imaging rate of ˜3 frames per second.
For each condition the tumour samples were imaged using a fibre placed at the tip of the tissue (baseline), and then again at 10 minute intervals following the additions of equimolar concentrations of probe+/− Inhibitor. For imaging solutions, the fibre was held in the solution and imaged every 5 minutes. Each condition and time-point data for both fluorescence intensity and lifetime were collected. Imaging sequences had non-relevant frames removed, and the entire field of view was analysed. Analysis was undertaken using a bespoke software suite utilising the rapid lifetime determination (RLD) method. The RLD method utilises two-time bins for reduced data load and high speed analysis whist retaining reasonable lifetime approximation for single exponential decays. […]

[6] = 5 ex vivo NSCLC samples, up to 40 minutes

SMILES: CC(C)[C@H](NC(=O)[C@@H](N)CCCCNC(=O)c1ccccc1N=Nc1ccc(N(C)C)cc1)C(=O)N[C@H](CO)C(=O)N1CCC[C@H]1C(=O)N[C@@H](CC(N)=O)C(=O)N[C@@H](CCC(N)=O)C(=O)NCC(=O)N[C@@H](CCCCNC(=O)c1ccc2c(c1)C(=O)OC21c2ccc(O)cc2Oc2cc(O)ccc21)C(=O)NCCOCCOCC(=O)N[C@H](CCCCN)C(=O)NCCOCCOCC(=O)N[C@H](CCCCN)C(=O)NCCOCCOCC(=O)N[C@H](CCCCN)C(N)=O [FAP3, Lys(MethylRed)-Val-(D)Ser-Pro-Asn-Gln-Gly-Lys(5-FAM)-[Peg2-(D)Lys]3-NH2] (H-K(X1)V[dS]PNQGK(5FAM)[AEEA][dK][AEEA][dK][AEEA][dK]-NH2)
- cleavage by rhPREP (rhPREP): no rhPREP cleavage
- cleavage by rhDPPIV (exopeptidase activity) (rhDPPIV): no cleavage
- signal (relative fluorescence intensity) with rhFAP (rhFAP [1]; comparison between probe iterations): improved signal characteristics
- FAP specificity (over PREP) (rhFAP [1]; from recombinant enzyme assessment): FAP specificity; also recorded: FAP specific sequence over PREP, DPP-IV and MMP's
- activity for MMPs [2]: no activity
- cleavage / stability in activated neutrophil lysate ([3]; FAP negative neutrophils, lysate used 1:1): stable; also recorded: resistant to non-specific inflammatory cell degradation
- MALDI-TOF analysis of probe after activated neutrophil lysate ([3]; data not shown): remained intact
- fluorescence lifetime in relation to rhFAP concentration (rhFAP [4]; 5 μm FAP3): longer lifetime reflective of higher rhFAP concentrations
- time to detect changes in intensity and lifetime (rhFAP [4]; 5 μm FAP3, imaged up to 40 minutes): ≤ 5 min
- change in fluorescence intensity in NSCLC tissue [5, 6]: increase in fluorescence intensity; also recorded: significant FAP dependent increase
- change in fluorescence lifetime (FLIM) in NSCLC tissue [5, 6]: significant increase; also recorded: change to a longer FLIM signature; also recorded: longer lifetime
- time to maximum change ([5]; samples CR68 and CR126): ≤ 10 min
